Measurements from US20160229894A1, “ALPHA HELIX CELL-PENETRATING PEPTIDE MULTIMER, PREPARATION METHOD THEREFOR AND USE THEREFOR” (priority 2013, published 2016).
Not every detail of the peptide structures is certain; ends, links or a residue may be inferred. Some of these results come from one statement about several compounds together. Numbered stars: 1 amine (or outer) side, 2 acyl side, 3 side chain; on linkers, the order of the positions; unused ones are H or OH. Bridge positions count the residues as written; N and C are the ends. Peptide text beside a SMILES is read from it. I, II: the chains in the order shown. X1 = O=C1CC([*:1])C(=O)N1c1ccc(N2C(=O)CC([*:2])C2=O)cc1

Key:
[1] = test system: HeLa cells; assay: Intracellular penetration under endocytosis inhibiting conditions; format: cell-based, human; settings: 500 nM
Procedure: In order to examine the mechanism used in intracellular penetration, LK peptides were tested under various endocytosis inhibiting conditions. […] It can be seen that LK-4 (non-reducible dimer) entered the cells according to a mechanism similar to that at the low concentration (FIG. 4d). […] Thus, it can be seen that LK-2 and LK-3 penetrate cells at a high concentration by other type of energy-dependent pathway which is neither the receptor-mediated endocytosis nor macropinocytosis.

[2] = test system: TAR RNA; assay: Binding affinity for TAR RNA by fluorescence anisotropy; parameters: species or system HIV-1; settings: versus monomeric peptides
Procedure: The Kd values (dissociation constants) of the peptides for binding to TAR RNA were measured by fluorescence anisotropy at 20° C. using a rhodamine-Rev peptide as a probe.

[3] = test system: HeLa cells; assay: Cell penetration of FITC-labeled peptides by FACS; format: cell-based, human
Procedure: The intracellular uptakes of three different peptides were compared to one another by an FACS experiment at various concentrations of FITC-labeled peptides (FIG. 4).
LK peptides labeled with FITC (fluorescein isothocyanate) were incubated with HeLa cells (human cervical cancer cell line) using the known cell-penetrating peptide R9 consisting of 9 arginine residues.

[4] = CD (circular dichroism) α-helical content; format: physicochemical
Procedure: The secondary structures of the synthesized monomeric, dimeric or dimal peptides were observed using CD (circular dichroism). […] This α-helical content very differs from that of the monomers (30% in an aqueous solution).
Using CD (circular dichroism), the first alpha-helicity value was measured in […] PBS (pH 7.4), and the second value was measured in 50% TFE in the same buffer.

CC(=O)N[C@@H](CC(C)C)C(=O)N[C@@H](CCCCN)C(=O)N[C@@H](CCCCN)C(=O)N[C@@H](CC(C)C)C(=O)N[C@H]1CSC2CC(=O)N(C2=O)c2ccc(cc2)N2C(=O)CC(SC[C@H](NC(=O)[C@H](CC(C)C)NC(=O)[C@H](CCCCN)NC(=O)[C@H](CCCCN)NC(=O)[C@H](CC(C)C)NC(C)=O)C(=O)N[C@@H](CCCCN)C(=O)N[C@@H](CC(C)C)C(=O)N[C@@H](CC(C)C)C(=O)N[C@@H](CCCCN)C(=O)N[C@@H](CCCCN)C(=O)N[C@@H](CC(C)C)C(=O)N[C@H](C(=O)N[C@@H](CCCCN)C(=O)N[C@@H](CC(C)C)C(=O)N[C@@H](C)C(=O)NCC(N)=O)CSC3CC(=O)N(C3=O)c3ccc(cc3)N3C(=O)CC(SC[C@@H](C(=O)N[C@@H](CCCCN)C(=O)N[C@@H](CC(C)C)C(=O)N[C@@H](C)C(=O)NCC(N)=O)NC(=O)[C@H](CC(C)C)NC(=O)[C@H](CCCCN)NC(=O)[C@H](CCCCN)NC(=O)[C@H](CC(C)C)NC(=O)[C@H](CC(C)C)NC(=O)[C@H](CCCCN)NC1=O)C3=O)C2=O [LK-4] (I: Ac-LKKLCKLLKKLCKLAG-NH2 / II: Ac-LKKLCKLLKKLCKLAG-NH2; linker I:5-II:5, I:12-II:12 via X1)
internalization at lowered temperature ([1]; 4° C.): completely inhibited
intracellular penetration under endocytosis inhibitor ([1]; wortmannin or amiloride): completely inhibited
affinity times higher than the monomeric peptides [2]: 100-1000 times
percentage of FITC positive cells (cell-penetrating ability), order ([3]; all concentrations used): R9<LK-1 and LK-2<LK-4<LK-3
uptake efficiency lower than that of the dimer ([3]; low concentration): 10-15%
α-helicity (%), second value ([4]; 50% TFE in the same buffer): 91.6%
α-helicity (%), first value ([4]; PBS (pH 7.4)): 87.0%
alpha-helicity ([4]; condition not specified): about 90%
